One series relates to SmTRα + SmRXR1. Description: EMSA. The conditions noted are these: no heterodimer shift; EMSA on ice 40 min, 15 µl with 3 µl 5x buffer (5x: 20% glycerol, 5 mM MgCl2, 2.5 mM EDTA, 2.5 mM DTT, 250 mM NaCl, 50 mM Tris-HCl pH 7.5, 0.25 mg/ml poly(dI-dC)); protein translated in vitro; label: 32P. A general note: Mobility shift assays separate free from complexed probe on a gel.
A further series has as its system SmTRβ + SmRXR1. Description: EMSA. The conditions noted are these: no heterodimer shift; EMSA on ice 40 min, 15 µl with 3 µl 5x buffer (5x: 20% glycerol, 5 mM MgCl2, 2.5 mM EDTA, 2.5 mM DTT, 250 mM NaCl, 50 mM Tris-HCl pH 7.5, 0.25 mg/ml poly(dI-dC)); protein translated in vitro; label: 32P.

Construct, isoform or probe ends are uncertain for at least one entry. Negatives hold for the conditions tested. At least one verdict was read from the data and is not stated in words by the source.

On to “CCGTAAGGTCAAGGTCACTCG (double strand) [DR0]”, for which the binding result with SmTRα + SmRXR1 and in the series on SmTRβ + SmRXR1 was “no binding” throughout.

Consider “CCGTAAGGTCACAAGGTCACTCG (double strand) [DR2]”, for which the binding result in the series with SmTRα + SmRXR1 and with SmTRβ + SmRXR1 was “no binding” throughout.

For “CCGTAAGGTCACAGAGGTCACTCG (double strand) [DR3]”, the binding result in the series on SmTRα + SmRXR1 and in the series on SmTRβ + SmRXR1 was “no binding” in each case.

Consider “CCGTAAGGTCACAGGAGGTCACTCG (double strand) [DR4]”, for which the binding result in the series on SmTRα + SmRXR1 and in the series with SmTRβ + SmRXR1 was “no binding” each time.

Regarding “CCGTAAGGTCACAGGTCACTCG (double strand) [DR1]”, the binding result in the series with SmTRα + SmRXR1 and in the series with SmTRβ + SmRXR1 was “no binding” each time.

As for “CCGTAAGGTCACCAGGAGGTCACTCG (double strand) [DR5]”, the binding result with SmTRα + SmRXR1 and in the series with SmTRβ + SmRXR1 was “no binding” throughout.

Regarding “CGCAAGGTCATGACCTCG (double strand) [Pal0]”, the binding result with SmTRα + SmRXR1 and with SmTRβ + SmRXR1 was “no binding” each time.

As to “GTACCGTAAGGTCACTCGCGT (double strand) [half-site]”, the binding result in the series on SmTRα + SmRXR1 and with SmTRβ + SmRXR1 was “no binding” throughout.

(Values after PMC2045677, “Thyroid hormone receptor orthologues from invertebrate species with emphasis on Schistosoma mansoni”.)
